These results are taken from article PMC7819943, “Rice protein-binding microarrays: a tool to detect cis-acting elements near promoter regions in rice”.

Chains of the proteins cited; added tags and fusions are not shown.
UniProt Q0JBA9, entry or part of it: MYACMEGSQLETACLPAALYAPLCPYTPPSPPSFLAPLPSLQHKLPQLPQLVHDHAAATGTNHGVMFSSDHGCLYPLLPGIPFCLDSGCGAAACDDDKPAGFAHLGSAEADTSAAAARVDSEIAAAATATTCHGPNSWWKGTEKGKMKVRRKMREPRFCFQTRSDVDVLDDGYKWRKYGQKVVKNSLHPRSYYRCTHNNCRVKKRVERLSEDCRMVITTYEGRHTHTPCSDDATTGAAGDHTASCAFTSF

The list shows a part of the results.

In the assay the target is OsWRKY34 (Oryza sativa, UniProt Q0JBA9 1-250). Briefly: protein-binding microarray (RPBM); PBS, 2% BSA, 51.3 ng/ul salmon testes DNA, 50 uM zinc acetate, 200 nM TF, 25 C, 1 h; high values mean tight binding. Particulars: protein: recombinant; tags: N-terminal polyhistidine and DsRed monomer fusion (pET32a); label: CyDye5-dUTP incorporated in the synthesized complementary strand; 3' TTTTT single-stranded linker to array surface; dsDNA, one strand shown. Summed up:
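Transcription factors were made in E. coli BL21-CodonPlus as N-terminal fusions to a polyhistidine tag and DsRed, then purified on Ni–NTA. After primer extension with Cy5-dUTP and blocking with 2% BSA, a custom Agilent array was exposed for 1 h at 25 °C to 200 nM protein in PBS, 2% BSA, salmon testes DNA and 50 µM zinc acetate. Washed arrays were scanned on an Axon 4000B, and the binding signal is per-feature fluorescence intensity in arbitrary units.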
As for “TATAAACCACATCATCTTAATTGTTCGAACATTTTTTTTCCGGAGTCACCTAGTGCAG”, the binding signal is 8560 fluorescence intensity (a.u.).
The result for “TCCATTCATTAAGTCTATTCGTTATTTGTGTATTGAAGTACGGAGTCACCTAGTGCAG” reads 9100 fluorescence intensity (a.u.); that for “GAGCGCACCACTACTACCTCCCATCGCTGCGGGTTCCCAGCGGAGTCACCTAGTGCAG”, 8310 fluorescence intensity (a.u.); that for “TTCAGTTAATGCTAGTAGTTGCATTTGGTCCAATCTCACACGGAGTCACCTAGTGCAG”, 10700 fluorescence intensity (a.u.).
In the case of “ACTAAACTTAGAAGTGCATTCTTGGTCCATTCATGCCCTCCGGAGTCACCTAGTGCAG” it was 8100 fluorescence intensity (a.u.); in that of “CAAAATATTGTATGGTTGTGTCGTATCGCATGTGCATCCGCGGAGTCACCTAGTGCAG”, 10100 fluorescence intensity (a.u.).
As for “CGAGATATTCACTTTCTTATAATGTTTTACCACTCATTTTCGGAGTCACCTAGTGCAG”, the binding signal was 8600 fluorescence intensity (a.u.).
The result for “AGCATGCACAAACACTCCTTTAATTTGCTTTTTATCTGTCCGGAGTCACCTAGTGCAG” reads 8520 fluorescence intensity (a.u.).
“GGGCCTTTTTCTTGTGGTGGTTGTCGTTGTTGTTCATGCCCGGAGTCACCTAGTGCAG”: the binding signal was 8680 fluorescence intensity (a.u.).
In the case of “TCATCTAGCATTATACCAACTTCTATATATGTATCTAGATCGGAGTCACCTAGTGCAG” it was 8150 fluorescence intensity (a.u.).
For the sequence “CTATCTACTGTAGGGTTGTGCTTGTTGTAGCTCGTAAATCCGGAGTCACCTAGTGCAG”, the binding signal was 9130 fluorescence intensity (a.u.).
In the case of “TGGTTCAAATCTTAACATCCACTAATATTATGCACACATTCGGAGTCACCTAGTGCAG” it was 10000 fluorescence intensity (a.u.); in that of “GAATTTGCAGGTTTAGCCACAGTACGCGTGCGTTGTGTTCCGGAGTCACCTAGTGCAG”, 8160 fluorescence intensity (a.u.); in that of “GCATCGCCGTGTTCTTCACTTCTTCCCATCCGTCCACTTCCGGAGTCACCTAGTGCAG”, 8680 fluorescence intensity (a.u.).
The result for “GTTTTTCAGCCGTGATATGTTTTTGTGATGTTTATCATTTCGGAGTCACCTAGTGCAG” reads 9520 fluorescence intensity (a.u.); that for “ATTCTGCAACTGTTCATCGCTGTTCCTAAATCTGATTTCACGGAGTCACCTAGTGCAG”, 11400 fluorescence intensity (a.u.).
Consider “GGTTAGGTTAGGTTACCAGCTCAAGATGTCTTAATCTTTTCGGAGTCACCTAGTGCAG”, for which the binding signal is 9160 fluorescence intensity (a.u.).
In the case of “GTGGGTTTTAAAGTTCATTCTCTTTTGGAAATACAGATCCCGGAGTCACCTAGTGCAG” it was 12600 fluorescence intensity (a.u.); in that of “GTTGCTGTTGCTAACTTGATTTTTTTTCTTCTATTGCTCACGGAGTCACCTAGTGCAG”, 8560 fluorescence intensity (a.u.); in that of “CACCGTCCGTCCGATGCCTCCCCGTTCTCGCGCCCATCGACGGAGTCACCTAGTGCAG”, 8450 fluorescence intensity (a.u.).
As for “CGTTTTGCTATGCGCCTATGCCATGATATAAAAATAAAACCGGAGTCACCTAGTGCAG”, the binding signal is 8170 fluorescence intensity (a.u.).
On to “GAAGGGCTCGGGTTGGATGGCATATACTGAAAATTCTCATCGGAGTCACCTAGTGCAG”, for which the binding signal is 8070 fluorescence intensity (a.u.).
Consider “GCTCACCTCCACCTCCACCTCACCTCCTCCTCCTCCTCATCGGAGTCACCTAGTGCAG”, for which the binding signal was 10200 fluorescence intensity (a.u.).
The result for “GATGTTTTTTTTCCTTCAAATTTTCTGTTCATGCGTATCTCGGAGTCACCTAGTGCAG” reads 8900 fluorescence intensity (a.u.); that for “CTCTCTATATATAGCTCTCGTCTTCTTCCACCTCTCACTCCGGAGTCACCTAGTGCAG”, 9300 fluorescence intensity (a.u.).
“GCCTGAAATCCTGAATCCACATCATTCTATAGTCCCTGTCCGGAGTCACCTAGTGCAG”: the binding signal is 9240 fluorescence intensity (a.u.).
On to “TTGGTATGTCTGCACTGTGCTCTGTGGATCATGTTCTCCGCGGAGTCACCTAGTGCAG”, for which the binding signal is 10800 fluorescence intensity (a.u.).
On to “GCTTTGTTAGGCTTCTATGTCTTGCTTTGCTAAAACCAAACGGAGTCACCTAGTGCAG”, for which the binding signal is 10300 fluorescence intensity (a.u.).
In the case of “TCTAGATTCACTAATGTTTATATAAATTTGGACACATATACGGAGTCACCTAGTGCAG” it was 8070 fluorescence intensity (a.u.); in that of “TTGCTTGCCTGACACATTACATAACTTGCAGTACCTTGATCGGAGTCACCTAGTGCAG”, 8130 fluorescence intensity (a.u.); in that of “GAGAACCTAATTGTGAGGCTCCTAGTTACACGACAAATCACGGAGTCACCTAGTGCAG”, 56300 fluorescence intensity (a.u.).
The result for “TGACTCTCTCCGCATCGGTTATACTACGCGCCCAACCTCCCGGAGTCACCTAGTGCAG” reads 9930 fluorescence intensity (a.u.); that for “AGTCTAAGTGGACTTTTTCCTTACTGCTTAATTATACTCACGGAGTCACCTAGTGCAG”, 8340 fluorescence intensity (a.u.); that for “GGTTCGATCTCTTTCGTTAGGTTAATTCAGGCTTGATGATCGGAGTCACCTAGTGCAG”, 9100 fluorescence intensity (a.u.).
In the case of “TTCATAGGCTTTGTGGTGGTGCTCGATTGGATAATTCTTCCGGAGTCACCTAGTGCAG” it was 8510 fluorescence intensity (a.u.); in that of “TGTGTCCATTGATTTATGATTGCCCATTTTTATCAGATAACGGAGTCACCTAGTGCAG”, 9360 fluorescence intensity (a.u.); in that of “CTAATCACGTTTTGGCGATTTAGTCTTCTCTCTTCTCTCTCGGAGTCACCTAGTGCAG”, 9750 fluorescence intensity (a.u.).
On to “TCCAGTTTTGGTCTGGGTGATGTGTCATGTTCTGATTGGCCGGAGTCACCTAGTGCAG”, for which the binding signal is 8180 fluorescence intensity (a.u.).
In the case of “CTTTTACTTTGTCATTACTTGGTATATCCACAGTTTGTCTCGGAGTCACCTAGTGCAG” it was 10700 fluorescence intensity (a.u.).
In the case of “ATTTATGGTTTCTTCATTGATTTTCTGCACAAGCAAGCATCGGAGTCACCTAGTGCAG” it was 8070 fluorescence intensity (a.u.).
In the case of “TTCTGTTGTTTTACTTTGGTTGACCCAAGTATGAAGCTTTCGGAGTCACCTAGTGCAG” it was 9610 fluorescence intensity (a.u.).
Consider “TATTTTATGTGTGACTAACTTATTTTAATTTTCTCATAAACGGAGTCACCTAGTGCAG”, for which the binding signal is 8380 fluorescence intensity (a.u.).
In the case of “CGTCTCCTGATCAAACGATCAACTTCGTTTCACGGTTTCACGGAGTCACCTAGTGCAG” it was 8450 fluorescence intensity (a.u.); in that of “GCTAGACTATCATCAGCAAGCTAGCAATTAAAGGCCTTGTCGGAGTCACCTAGTGCAG”, 64200 fluorescence intensity (a.u.); in that of “TTGGCTGACTTCTCGCCGCAGCCGGTCACATCACGCGTCCCGGAGTCACCTAGTGCAG”, 8020 fluorescence intensity (a.u.).
The result for “GTGGGCATGATTTTCTTCTGTTTTCTCGTTTTAATTTTTTCGGAGTCACCTAGTGCAG” reads 20100 fluorescence intensity (a.u.).
As to “TACTTTTTATATTTCTTTTGCTAACTAGGGTGCCACGTCACGGAGTCACCTAGTGCAG”, the binding signal is 8250 fluorescence intensity (a.u.).
The result for “TTAGACAAAAAGTCAACGGCATCATACATTAAAATATGGACGGAGTCACCTAGTGCAG” reads 12400 fluorescence intensity (a.u.).
“TCAAACGATGCCATTCACCACGTGCCACTTTATATCAAACCGGAGTCACCTAGTGCAG”: the binding signal was 11700 fluorescence intensity (a.u.).
Regarding “AGGGTTTTGATTTCCTATGTTAGATAGATGGGGTTGCGAGCGGAGTCACCTAGTGCAG”, the binding signal is 8620 fluorescence intensity (a.u.).
In the case of “ATTAATCCCTCACTTGGGAACAAATCTACCTGCCTATATTCGGAGTCACCTAGTGCAG” it was 9500 fluorescence intensity (a.u.); in that of “AGGTTCAGTATATTTTTTGTCAGCTGATCATCGCCTAGATCGGAGTCACCTAGTGCAG”, 9230 fluorescence intensity (a.u.); in that of “TGCCACCACGCCCTTCATCGCCCAATCGCCGTCCCTGAGCCGGAGTCACCTAGTGCAG”, 8790 fluorescence intensity (a.u.).
With “ATTCAGTCTGCAACTCTGCATGGCGCACACTTCCATTCATCGGAGTCACCTAGTGCAG”, the binding signal was 10400 fluorescence intensity (a.u.).
